Measurements reported in publication PMC9529947.
No constants are given. Whether binding was seen depends on the method and setting. In cells and extracts the contact can be indirect. For some assays here: Binding can be weak; no strength is given. For some assays here: Sequences can lack the tags named with a protein.

What was measured:
[1] = target: T1, RhoGDIα (endogenous, 293-CDC42 cells) (human (endogenous in HEK293T-derived 293-CDC42 cells)) (UniProt P52565); experiment: proximity ligation; Duolink In Situ Orange kit on fixed, permeabilised 293-CDC42 cells, control or LNX1-overexpressing; probes RhoC/RhoGDIα or HA/RhoGDIα
T1 sequence: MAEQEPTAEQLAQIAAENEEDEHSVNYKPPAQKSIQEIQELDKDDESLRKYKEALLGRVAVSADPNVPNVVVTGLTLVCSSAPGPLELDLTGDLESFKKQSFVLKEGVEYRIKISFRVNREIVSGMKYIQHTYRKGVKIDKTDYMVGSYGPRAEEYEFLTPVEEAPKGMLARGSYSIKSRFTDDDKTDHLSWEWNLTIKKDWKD

[2] = target: FLAG-RHOC (human (from the printed accession)); experiment: co-IP; EZview Red Anti-FLAG M2 Affinity Gel on lysates of co-transfected HEK293T cells; FLAG-tagged protein as bait, EGFP-tagged protein detected by blot
[3] = target: PAFAH1B3-Myc-FLAG (human (from the printed accession)); experiment: as above
[4] = target: RhoC R188S (overexpressed, Figure S2) (human (from the printed accession)); experiment: co-IP; RhoC immunoprecipitated from cells overexpressing RhoC (wild type or R188S) with or without LNX1; RhoGDIα detected (Figure S2)
[5] = target: wild type RhoC (overexpressed, Figure S2) (human (from the printed accession)); experiment: as above

## RhoC (endogenous, 293-CDC42 cells)
[1]
  binding: binds

B1: EGFP-LIS1 (protein, UniProt P63005-1 1-410)
chain: MVLSQRQRDELNRAIADYLRSNGYEEAYSVFKKEAELDMNEELDKKYAGLLEKKWTSVIRLQKKVMELESKLNEAKEEFTSGGPLGQKRDPKEWIPRPPEKYALSGHRSPVTRVIFHPVFSVMVSASEDATIKVWDYETGDFERTLKGHTDSVQDISFDHSGKLLASCSADMTIKLWDFQGFECIRTMHGHDHNVSSVAIMPNGDHIVSASRDKTIKMWEVQTGYCVKTFTGHREWVRMVRPNQDGTLIASCSNDQTVRVWVVATKECKAELREHEHVVECISWAPESSYSSISEATGSETKKSGKPGPFLLSGSRDKTIKMWDVSTGMCLMTLVGHDNWVRGVLFHSGGKFILSCADDKTLRVWDYKNKRCMKTLNAHEHFVTSLDFHKTAPYVVTGSVDQTVKVWECR
[2]
  binding: no binding
[3]
  binding: binds

B2: RhoGDIα (co-immunoprecipitated with RhoC, Figure S2) (protein, UniProt P52565 1-204)
chain: T1 sequence
[4]
  binding: binds
[5]
  binding: binds
